Laboratory results from publication PMC7028823, “EF1025, a Hypothetical Protein From Enterococcus faecalis, Interacts With DivIVA and Affects Cell Length and Cell Shape” (Frontiers in Microbiology, 2020).
No constants are given. Whether binding was seen depends on the method and setting. For some assays here: In cells and extracts the contact can be indirect. Some results given as binding are weak or reduced against the parent protein; the word gives no strength. Where a sequence is shown, tags or fusion partners need not be part of it.

How the values were obtained:
[1] = biological target: T1, DivIVABs (Bacillus subtilis) (UniProt P71021); assay: pull-down; GST pull-down; paper in preparation, no details
T1 sequence: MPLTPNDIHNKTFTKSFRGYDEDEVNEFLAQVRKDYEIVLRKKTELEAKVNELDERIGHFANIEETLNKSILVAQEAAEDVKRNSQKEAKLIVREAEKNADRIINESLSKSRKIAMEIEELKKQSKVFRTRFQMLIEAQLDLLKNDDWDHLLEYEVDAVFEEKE

[2] = biological target: T1, DivIVABs (Bacillus subtilis); assay: two-hybrid; bacterial two-hybrid (B2H); paper in preparation, no details

B1: CcpN (control catabolite protein of gluconeogenic genes) (protein, UniProt O34994 1-212)
chain: MSTIELNKRQEHILQIVKENGPITGEHIAEKLNLTRATLRPDLAILTMSGFLEARPRVGYFYTGKTGTQLLADKLKKLQVKDFQSIPVVIHENVSVYDAICTMFLEDVGTLFVVDRDAVLVGVLSRKDLLRASIGQQELTSVPVHIIMTRMPNITVCRREDYVMDIAKHLIEKQIDALPVIKDTDKGFEVIGRVTKTNMTKILVSLSENEIL
[1]
  binding: binds
[2]
  binding: binds
